Assay results: patent US5580957A, “GnRH analogs” (The Salk Institute for Biological Studies, priority 1994, dated 1996)
Not every detail of the peptide structures is certain; ends, links or a residue may be inferred. Numbered stars: 1 amine (or outer) side, 2 acyl side, 3 side chain; on linkers, the order of the positions; unused ones are H or OH. Square brackets hold non-standard residues; d marks the D form. Peptide text beside a SMILES is read from it. * marks the point of attachment. Phe(4-NH(5-NH2triazol-3-yl)) = Nc1nc(Nc2ccc(C[C@H](N)C(=O)O)cc2)n[nH]1; X19 = Nc1n[nH]c(Nc2ccc(C[C@@H](N[*:1])C(=O)[*:2])cc2)n1; hArg(ω-Bu,ω'-CN) = CCCC/N=C(\NC#N)NCCCC[C@H](N)C(=O)O; dPhe(4-Cl) = N[C@H](Cc1ccc(Cl)cc1)C(=O)O; d2Nal = N[C@H](Cc1ccc2ccccc2c1)C(=O)O; Lys(iPr) = CC(C)NCCCC[C@H](N)C(=O)O; d3Pal = N[C@H](Cc1cccnc1)C(=O)O; Nicotinoyl = O=C(c1cccnc1)*

Legend:
[1] = system: ovulation in female rats; assay: in vivo testing: effectiveness to prevent ovulation in female rats; design: species or system Sprague-Dawley rats; conditions: for biological potency in vivo relative to a comparison peptide (antagonists): biological testing in vivo
[2] = system: circulating LH in castrate male Sprague-Dawley rats; assay: LH levels in the bloodstream of adult castrate male rats after single IV bolus; type: in vivo; conditions: 50 microgram IV single bolus
[3] = system: release of LH and FSH in female rats; assay: GnRH agonists: release of LH and FSH in female rats / biological testing in vivo

In the case of `CCNC(=O)[C@@H]1CCCN1C(=O)[C@H](CCCCNC(C)C)NC(=O)[C@H](CC(C)C)NC(=O)[C@@H](Cc1ccc(Nc2nc(N)n[nH]2)cc1)NC(=O)[C@H](Cc1ccc(Nc2nc(N)n[nH]2)cc1)NC(=O)[C@H](CO)NC(=O)[C@@H](Cc1cccnc1)NC(=O)[C@@H](Cc1ccc(Cl)cc1)NC(=O)[C@@H](Cc1ccc2ccccc2c1)NC(C)=O` (Ac-[d2Nal][dPhe(4-Cl)][d3Pal]S[Phe(4-NH(5-NH2triazol-3-yl))][X19]L[Lys(iPr)]P-NHEt), the “biological potency in vivo relative to a comparison peptide (antagonists)” value [1] is reported as “just slightly less biological potency than that reported in TABLE B for Peptide 103B”.

`CC(=O)N[C@H](Cc1ccc2ccccc2c1)C(=O)N[C@H](Cc1ccc(Cl)cc1)C(=O)N[C@H](Cc1cccnc1)C(=O)N[C@@H](CO)C(=O)N[C@@H](Cc1ccc(Nc2nc(N)n[nH]2)cc1)C(=O)N[C@H](Cc1ccc(Nc2nc(N)n[nH]2)cc1)C(=O)N[C@@H](CC(C)C)C(=O)N[C@@H](CCCCNC(C)C)C(=O)N1CCC[C@H]1C(=O)NCC(N)=O` (Ac-[d2Nal][dPhe(4-Cl)][d3Pal]S[Phe(4-NH(5-NH2triazol-3-yl))][X19]L[Lys(iPr)]PG-NH2) was tested, and the “biological potency in vivo relative to a comparison peptide (antagonists)” value [1] was “slightly less biologically potent than Peptide 103A”.

`CCCCNC(=NC#N)NCCCC[C@H](NC(=O)[C@H](CC(C)C)NC(=O)[C@@H](CCCCNC(=O)c1cccnc1)NC(=O)[C@H](CCCCNC(=O)c1cccnc1)NC(=O)[C@H](CO)NC(=O)[C@@H](Cc1cccnc1)NC(=O)[C@@H](Cc1ccc(Cl)cc1)NC(=O)[C@@H](Cc1ccc2ccccc2c1)NC(C)=O)C(=O)N1CCC[C@H]1C(=O)N[C@H](C)C(N)=O` [Peptide 13] (Ac-[d2Nal][dPhe(4-Cl)][d3Pal]SK(Nicotinoyl)[dK](Nicotinoyl)L[hArg(ω-Bu,ω'-CN)]P[dA]-NH2) was tested, and the “Rats Ovulating” value ([1]; dosage 10 micrograms, injected at about noon on the day of proestrus, rats ovulating/rats treated) was 3/5.

With `CC(=O)N[C@H](Cc1ccc2ccccc2c1)C(=O)N[C@H](Cc1ccc(Cl)cc1)C(=O)N[C@H](Cc1cccnc1)C(=O)N[C@@H](CO)C(=O)N[C@@H](Cc1ccc(Nc2nc(N)n[nH]2)cc1)C(=O)N[C@H](Cc1ccc(Nc2nc(N)n[nH]2)cc1)C(=O)N[C@@H](CC(C)C)C(=O)N[C@@H](CCCCNC(C)C)C(=O)N1CCC[C@H]1C(=O)N[C@H](C)C(N)=O` [Peptide 103A, Ac-β-D-2NAL-(4Cl)D-phe-D-3PAL-Ser-Aph(3-amino 1,2,4 triazole)-D-Aph (3-amino 1,2,4 triazole)-Leu-Lys (isopropyl)-Pro-D-Ala-NH2] (Ac-[d2Nal][dPhe(4-Cl)][d3Pal]S[Phe(4-NH(5-NH2triazol-3-yl))][X19]L[Lys(iPr)]P[dA]-NH2) the “duration of biological effect (LH suppression)” value [2] was “very long-acting”, the “level of circulating LH in the bloodstream versus Nal-Glu antagonist” value ([2]; after 12 hours) was “below that of the rats treated with the Nal-Glu antagonist” and the “level of circulating LH in the bloodstream versus control” value ([2]; monitored at about 3, 24, 36 and 48 hours) was “very substantially below that of the control”.

In the case of `CC(C)C[C@H](NC(=O)[C@@H](Cc1ccc(Nc2nc(N)n[nH]2)cc1)NC(=O)[C@H](Cc1ccc(O)cc1)NC(=O)[C@H](CO)NC(=O)[C@H](Cc1c[nH]c2ccccc12)NC(=O)[C@H](Cc1c[nH]cn1)NC(=O)[C@@H]1CCC(=O)N1)C(=O)N[C@@H](CCCNC(=N)N)C(=O)N1CCC[C@H]1C(=O)NCC(N)=O` [Peptide 134A], the “biological potency in vivo relative to Peptide 130A (agonist)” value [3] is reported as “just slightly less biologically potent than Peptide 130A”.

With `CC(=O)N[C@H](Cc1ccc2ccccc2c1)C(=O)N[C@H](Cc1ccc(Cl)cc1)C(=O)N[C@H](Cc1cccnc1)C(=O)N[C@@H](CO)C(=O)N[C@H]1CCCCNC(=NC#N)NCCCC[C@@H](C(=O)N2CCC[C@H]2C(=O)N[C@H](C)C(N)=O)NC(=O)[C@H](CC(C)C)N(C)C(=O)[C@@H](Cc2cccnc2)NC1=O` [Peptide 145] the “effective to prevent ovulation of female mammals” value ([1]; at low dosages) was “considered to be effective”.
